# Some of the results follow. Repeats are few or missing, and single values can be far off.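 Hepatocyte-like cells derived from human stem cells with CRISPR-disrupted DGUOK model liver mtDNA depletion syndrome. Each well's ATP signal was scored against other wells on the same plate, and drugs scoring 3 or above were primary hits.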 Positions of bridges follow the written chain, without caps; N, C: chain ends. Non-standard residues stand in square brackets, D forms with d. Residues, ends and D or L forms follow the SMILES beside them. *: point of attachment. Ileψ(thiazoline)Cys = CC[C@H](C)[C@H](N)C1=N[C@H](C(=O)*)CS1; dOrn = NCCC[C@@H](N)C(=O)O
# Test system: DGUOK Δ14/Δ5 iPSC-derived hepatocyte-like cells (SV20)
# Assay: ATP level (CellTiter-Glo luminescence) Z score relative to plate distribution, under 2-DG glycolysis block; higher = more cellular ATP (rescue of mitochondrial ATP production)
# Settings: 5 µM; treatment time: day 15 to day 20 of differentiation (5 days); 2-deoxy-D-glucose: 20 mM for 24 h before assay
row,SMILES,ATP level
1,CC1(C)CC[C@]2(C)CC[C@]3(C)C(=CC[C@@H]4[C@@]5(C)CC[C@H](O)C(C)(C)[C@@H]5CC[C@]43C)[C@@H]2C1 [beta-AMYRIN],inactive: 1.15
2,Cc1cc2c(cc1S(N)(=O)=O)S(=O)(=O)CCC2,inactive: -0.679
3,CN1C(C)(C)CCCC1(C)C,inactive: 0.808
4,Cc1cc(O)c(C=O)c2c1C(=O)Oc1c(C)c(O)c3c(c1O2)C(O)OC3=O (stereo not drawn),inactive: -1.33
5,Cc1onc(-c2c(Cl)cccc2Cl)c1C(=O)N[C@@H]1C(=O)N2[C@@H]1SC(C)(C)[C@@H]2C(=O)O,inactive: 1.68
6,O=c1ccc2ccc(O)cc2o1,inactive: -1.19
7,CN(C)/N=N/c1[nH]cnc1C(N)=O,inactive: 0.442
8,C[N+](C)(C)CCCCCC[N+](C)(C)C,inactive: -1.29
9,CC[N+](C)(C)Cc1ccccc1Br,inactive: 1.52
10,CC1CC(OC(=O)C(O)c2ccccc2)CC(C)(C)C1 (stereo not drawn),inactive: 0.944
11,Cc1oncc1C(=O)Nc1ccc(C(F)(F)F)cc1,inactive: -2.27
12,CC(=O)Oc1ccc2c(c1)CC[C@@H]1[C@@H]2CC[C@]2(C)[C@@H](O)CC[C@@H]12,inactive: -0.39
13,O=C(O)c1cccnc1Nc1cccc(C(F)(F)F)c1,inactive: 1.28
14,O=C(O)c1cccc(O)c1O,inactive: -1.4
15,CC(CCc1ccccc1)NCC(O)c1ccc(O)c(C(N)=O)c1 (stereo not drawn),active: 4.79
16,CCOC(=O)[C@H](CCc1ccccc1)N[C@@H](C)C(=O)N1Cc2ccccc2C[C@H]1C(=O)O,active: 11.2
17,CN(C)CCCN1c2ccccc2Sc2ccccc21,inactive: -7.89
18,Cc1cc(C(C)(C)C)c(O)c(C)c1CC1=NCCN1,inactive: -2.47
19,C=CC(C1=CC(=O)C=CC1=O)c1ccccc1 (stereo not drawn),inactive: -0.302
20,COc1ccc2c(=O)ccoc2c1,inactive: 0.183
21,COc1c2ccoc2c(OC)c2oc(=O)ccc12,inactive: 0.807
22,COc1ccc([C@@H]2CC(=O)c3c(O)cc(O[C@@H]4O[C@H](CO[C@@H]5O[C@@H](C)[C@H](O)[C@@H](O)[C@H]5O)[C@@H](O)[C@H](O)[C@H]4O)cc3O2)cc1O,inactive: -1.68
23,CC(C)(C(=O)O)c1ccc(C(O)CCCN2CCC(C(O)(c3ccccc3)c3ccccc3)CC2)cc1 (stereo not drawn),inactive: 0.868
24,COc1ccc2c(c1)OC/C(=C\c1ccc(OC)c(O)c1)C2=O,inactive: -1.65
25,C[N+]1(C)[C@@H]2CC[C@H]1C[C@@H](OC(=O)C(O)c1ccccc1)C2 (stereo partly drawn),inactive: 1.47
26,COC(=O)C1=C(C)NC(C)=C(C(=O)OCCN2CCN(C(c3ccccc3)c3ccccc3)CC2)C1c1cccc([N+](=O)[O-])c1 (stereo not drawn),inactive: 1.82
27,C=Cc1c(C)c2cc3[nH]c(cc4nc(cc5nc(cc1[nH]2)C(C)=C5CCC(=O)O)C(CCC(=O)O)=C4C)c(C)c3C=C,inactive: -8

row,SMILES,ATP level
1,COC(=O)[C@H]1[C@H]2C[C@H]3c4[nH]c5ccccc5c4CCN3C[C@@H]2CC[C@@H]1O,inactive: -2.12
2,CC(=O)Nc1ccccc1,inactive: 0.346
3,O=C1OC2(c3ccccc31)c1cc(I)c(O)c(I)c1Oc1c2cc(I)c(O)c1I,inactive: 1.26
4,CSc1ccc2c(c1)C(N1CCN(C)CC1)Cc1ccccc1S2 (stereo not drawn),inactive: -6.15
5,CC(C(=O)O)c1ccc2c(c1)Cc1cccnc1O2 (stereo not drawn),inactive: -1.37
6,C[C@H]1COc2c(C3(N)CC3)c(F)cc3c(=O)c(C(=O)O)cn1c23,inactive: -2.02
7,COc1ccc(-c2cc(=O)c3c(O)c(OC)c(O[C@@H]4O[C@H](CO[C@@H]5O[C@@H](C)[C@H](O)[C@@H](O)[C@H]5O)[C@@H](O)[C@H](O)[C@H]4O)cc3o2)cc1,inactive: 1.09
8,Cn1c(=O)[nH]c(=O)c2[nH]cnc21,inactive: -6.62
9,OC[C@H]1O[C@H](O[C@]2(CCl)O[C@H](CCl)[C@@H](O)[C@@H]2O)[C@H](O)[C@@H](O)[C@H]1Cl,inactive: -0.28
10,O=C(O)[C@@H](O)[C@H](O)[C@H](O)[C@@H](O)C(=O)O,inactive: 1.72
11,CN1CCC(=C2c3ccccc3CCc3cccnc32)CC1,inactive: 1.24
12,COc1ccc2c(c1)c(CC(=O)O)c(C)n2C(=O)c1ccc(Cl)cc1,inactive: 2.37
13,CC1(C)C=Cc2c(c3c(c4c(=O)c(-c5ccc(O)c(O)c5)coc24)OC(C)(C)CC3)O1,inactive: 2.82
14,CC(C)(C)NCC(O)COc1cccc2c1CCC(=O)N2 (stereo not drawn),inactive: 0.706
15,CC(=O)NCCCS(=O)(=O)O,inactive: 1.18
16,COc1ccc2c(c1OC)C(=O)O[C@@H]2[C@H]1c2c(cc3c(c2OC)OCO3)CCN1C,inactive: 0.762
17,O=C(O)c1cc(/N=N/c2ccc(O)c(C(=O)O)c2)ccc1O,inactive: 1.07
18,CCOC(=O)O[C@]1(C(=O)COC(=O)CC)CC[C@H]2[C@@H]3CCC4=CC(=O)C=C[C@]4(C)[C@H]3[C@@H](O)C[C@@]21C,inactive: 1.58
19,OC(CNCC(O)C1CCc2cc(F)ccc2O1)C1CCc2cc(F)ccc2O1 (stereo not drawn),inactive: -4.84
20,Cc1c[nH]c2ccccc12,active: 3.49
21,CC(=O)NS(=O)(=O)c1ccc(NC(=O)c2ccccc2C(=O)O)cc1,inactive: -1.36
22,O=c1cc(-c2ccc(O)cc2)oc2ccc(O)cc12,inactive: 0.911
23,CC[C@H](C)[C@H](N)C1=N[C@H](C(=O)N[C@@H](CC(C)C)C(=O)N[C@H](CCC(=O)O)C(=O)N[C@H](C(=O)N[C@H]2CCCCNC(=O)[C@H](CC(N)=O)NC(=O)[C@@H](CC(=O)O)NC(=O)[C@H](Cc3cnc[nH]3)NC(=O)[C@@H](Cc3ccccc3)NC(=O)[C@H]([C@@H](C)CC)NC(=O)[C@@H](CCCN)NC2=O)[C@@H](C)CC)CS1 ({Ileψ(thiazoline)Cys}-L[dE]IK[dOrn]I[dF]H[dD]N; lactam 4-C),inactive: 0.766
24,O=C(CCc1ccc(O)cc1)c1c(O)cc(O)cc1O,inactive: 0.913
25,CN1CCN(CCCN2c3ccccc3Sc3ccc(C(F)(F)F)cc32)CC1,inactive: -3.36
26,CC(S)C(=O)NCC(=O)O (stereo not drawn),inactive: 0.635

# Part of the list above in order of SMILES length, smallest number first.
row,SMILES,ATP level
20,Cc1c[nH]c2ccccc12,active: 3.49
16,COc1ccc2c(c1OC)C(=O)O[C@@H]2[C@H]1c2c(cc3c(c2OC)OCO3)CCN1C,inactive: 0.762
9,OC[C@H]1O[C@H](O[C@]2(CCl)O[C@H](CCl)[C@@H](O)[C@@H]2O)[C@H](O)[C@@H](O)[C@H]1Cl,inactive: -0.28
